Measurements: PubChem BioAssay AID212 (DTP/NCI, 2004)
The list shows only some results of the screen, not a fair sample: it covers a few groups of compounds. Other doses and runs of a compound may be missing. T/C is the treated group as % of the vehicle group. Schedule codes are those of the source, taken here to give the interval after Q, in days (D) or hours (H), and the number of doses after X. Some T/C values are marked as having no survivor count here; that says nothing about deaths at the dose. Some doses were run more than once; their values stand side by side, smallest first. For survival time, the PubChem record calls one and a half times the control and up active, and a quarter to a half above the control has no call in these data; cut-offs in other NCI protocols can differ.

System: BDF1 mice, colon carcinoma 38 sc, T/C %
Experiment: NCI In Vivo Anticancer Drug Screen. Data for tumor model Colon Carcinoma 38 (subcutaneous) in B6D2F1 (BDF1) mice
Procedure: The antitumor activity of compounds was measured in mice bearing transplantable tumors. Survival or tumor size were measured and the results are expressed as the measurement made in the treated group (T) divided by the measurement made in the vehicle treated control group (C). The tumor model used in this assay is Colon Carcinoma 38 (subcutaneous) in B6D2F1 (BDF1) mice

With `C[C@@H](O)[C@H]1/C=C/C=C\C(=O)O[C@@H]2C[C@H]3O[C@@H]4[C@@H]5OC5(C)CCC4(COC(=O)[C@H]4O[C@]4(C)[C@@H](O)CO1)[C@]2(C)[C@]31CO1` (some centres undefined) as the molecule, how does the T/C (T/C endpoint: median tumor weight (est.), dose: 2.5 mg/kg/injection, schedule: Q07DX002 (ip), vehicle: saline + alcohol, evaluated on day 20, higher T/C = larger tumour) read?
Its T/C is 102 % of control [survivor count not shown].

What about the T/C (T/C endpoint: median tumor weight (est.), dose: 10.0 mg/kg/injection, schedule: Q07DX002 (ip), vehicle: saline + alcohol, evaluated on day 20, higher T/C = larger tumour) of the same molecule?
Its T/C is 99 % of control [survivor count not shown].

And the T/C (T/C endpoint: median tumor weight (est.), dose: 40.0 mg/kg/injection, schedule: Q07DX002 (ip), vehicle: saline + alcohol, evaluated on day 20, higher T/C = larger tumour)?
Its T/C is 105 % of control [survivor count not shown].

For `CC(=O)OC[C@]12CC(=O)C(C)=C[C@H]1O[C@@H]1C(=O)[C@@H](OC(C)=O)[C@@]2(C)[C@@]12CO2`, which T/C (T/C endpoint: median tumor weight (est.), dose: 0.5 mg/kg/injection, schedule: Q07DX002 (ip), vehicle: water, evaluated on day 20, higher T/C = larger tumour) is on record?
The T/C was 116 % of control [survivor count not shown].

And the T/C (T/C endpoint: median tumor weight (est.), dose: 1.0 mg/kg/injection, schedule: Q07DX002 (ip), vehicle: water, evaluated on day 20, higher T/C = larger tumour)?
The T/C was 90 % of control [survivor count not shown].

And the T/C (T/C endpoint: median tumor weight (est.), dose: 2.0 mg/kg/injection, schedule: Q07DX002 (ip), vehicle: water, evaluated on day 20, higher T/C = larger tumour)?
Its T/C is 73 % of control [survivor count not shown].

And the T/C (T/C endpoint: median tumor weight (est.), dose: 4.0 mg/kg/injection, schedule: Q07DX002 (ip), vehicle: water, evaluated on day 20, higher T/C = larger tumour)?
Its T/C is 92 % of control [survivor count not shown].

Which results are given for `CC1=C[C@H]2O[C@@H]3C[C@H]4OC(=O)/C=C\C=C\C(C(C)O)OCC[C@@H](C)[C@H](O)C(=O)OC[C@@]2(CC1)[C@]4(C)[C@]31CO1` (some centres undefined)?
T/C (T/C endpoint: median tumor weight (est.), dose: 0.05 mg/kg/injection, schedule: Q07DX002 (ip), vehicle: Klucel (hydroxypropylcellulose) (HPC), evaluated on day 20, higher T/C = larger tumour): 150 % of control [survivor count not shown]; T/C (T/C endpoint: median tumor weight (est.), dose: 0.09 mg/kg/injection, schedule: Q07DX002 (ip), vehicle: Klucel (hydroxypropylcellulose) (HPC), evaluated on day 20, higher T/C = larger tumour): 95 % of control [survivor count not shown]

Which results are given for `CC(=O)OC[C@]12C[C@H](OC(=O)CC(C)C)C(C)=C[C@H]1O[C@@H]1[C@H](O)[C@@H](O)[C@@]2(C)[C@@]12CO2`?
T/C (T/C endpoint: median tumor weight (est.), dose: 0.25 mg/kg/injection, schedule: Q07DX002 (ip), vehicle: saline, evaluated on day 20, higher T/C = larger tumour): 81 % of control [survivor count not shown]; T/C (T/C endpoint: median tumor weight (est.), dose: 0.5 mg/kg/injection, schedule: Q07DX002 (ip), vehicle: saline, evaluated on day 20, higher T/C = larger tumour): 111 [survivor count not shown] and 129 % of control [survivor count not shown]; T/C (T/C endpoint: median tumor weight (est.), dose: 1.0 mg/kg/injection, schedule: Q07DX002 (ip), vehicle: saline, evaluated on day 20, higher T/C = larger tumour): 64 [survivor count not shown], 85 [survivor count not shown], 96 % of control [survivor count not shown]; T/C (T/C endpoint: median tumor weight (est.), dose: 2.0 mg/kg/injection, schedule: Q07DX002 (ip), vehicle: saline, evaluated on day 20, higher T/C = larger tumour): 27 [survivor count not shown], 58 [survivor count not shown], 74 % of control [survivor count not shown]; T/C (T/C endpoint: median tumor weight (est.), dose: 4.0 mg/kg/injection, schedule: Q07DX002 (ip), vehicle: saline, evaluated on day 20, higher T/C = larger tumour): 23 [survivor count not shown] and 38 % of control [survivor count not shown]; T/C (T/C endpoint: median tumor weight (est.), dose: 8.0 mg/kg/injection, schedule: Q07DX002 (ip), vehicle: saline, evaluated on day 20, higher T/C = larger tumour): 86 % of control [survivor count not shown]; T/C (T/C endpoint: median tumor weight (est.), dose: 16.0 mg/kg/injection, schedule: Q07DX002 (ip), vehicle: saline, evaluated on day 20, higher T/C = larger tumour): 35 % of control [survivor count not shown]

`CC1=C[C@H]2O[C@@H]3C[C@H]4OC(=O)/C=C\C=C\C(C(C)O)OCC(O)C(C)CC(=O)OC[C@@]2(C[C@@H]1O)[C@]4(C)[C@@]31CO1` (some centres undefined) was tested. Which T/C (T/C endpoint: median survival time, dose: 0.5 mg/kg/injection, schedule: Q07DX003 (sc), vehicle: other, higher T/C = longer survival) did it give?
Its T/C is 107 % of control [survivor count not shown].

With `CC1=CC2OC3CC4OC(=O)/C=C/C=C/C(C(C)O)OCC(O)C(C)CC(=O)OCC2(CC1O)C4(C)C31CO1` (centres undefined) as the molecule, how does the T/C (T/C endpoint: median survival time, dose: 1.0 mg/kg/injection, schedule: Q07DX003 (sc), vehicle: other, higher T/C = longer survival) read?
The T/C was 98 % of control [survivor count not shown].

And the T/C (T/C endpoint: median survival time, dose: 2.0 mg/kg/injection, schedule: Q07DX003 (sc), vehicle: other, higher T/C = longer survival)?
Its T/C is 109 % of control [survivor count not shown].

What about the T/C (T/C endpoint: median tumor weight (est.), dose: 0.08 mg/kg/injection, schedule: Q07DX003 (ip), vehicle: Klucel (hydroxypropylcellulose) (HPC), evaluated on day 20, higher T/C = larger tumour) of the same molecule?
Its T/C is 79 % of control [survivor count not shown].

What about the T/C (T/C endpoint: median tumor weight (est.), dose: 0.15 mg/kg/injection, schedule: Q07DX003 (ip), vehicle: Klucel (hydroxypropylcellulose) (HPC), evaluated on day 20, higher T/C = larger tumour) of the same molecule?
The T/C was 84 % of control [survivor count not shown].

And the T/C (T/C endpoint: median tumor weight (est.), dose: 0.31 mg/kg/injection, schedule: Q07DX003 (ip), vehicle: Klucel (hydroxypropylcellulose) (HPC), evaluated on day 20, higher T/C = larger tumour)?
The T/C was 113 % of control [survivor count not shown].

And the T/C (T/C endpoint: median tumor weight (est.), dose: 0.62 mg/kg/injection, schedule: Q07DX003 (ip), vehicle: Klucel (hydroxypropylcellulose) (HPC), evaluated on day 20, higher T/C = larger tumour)?
The T/C was 101 % of control [survivor count not shown].

How did the T/C (T/C endpoint: median tumor weight (est.), dose: 1.56 mg/kg/injection, schedule: Q07DX002 (ip), vehicle: saline + Tween-80 + alcohol, evaluated on day 20, higher T/C = larger tumour) turn out when `CC1=C[C@H]2O[C@@H]3C[C@H]4OC(=O)/C=C\C=C\C5OC(C/C(C)=C\C(=O)OCC2(CC1)[C@]4(C)[C@]31CO1)OC5C` (some centres undefined) was run?
Its T/C is 81 % of control [survivor count not shown].

And the T/C (T/C endpoint: median tumor weight (est.), dose: 3.12 mg/kg/injection, schedule: Q07DX002 (ip), vehicle: saline + Tween-80 + alcohol, evaluated on day 20, higher T/C = larger tumour)?
The T/C was 121 % of control [survivor count not shown].

What about the T/C (T/C endpoint: median tumor weight (est.), dose: 6.25 mg/kg/injection, schedule: Q07DX002 (ip), vehicle: saline + Tween-80 + alcohol, evaluated on day 20, higher T/C = larger tumour) of the same molecule?
The T/C was 109 % of control [survivor count not shown].

What about the T/C (T/C endpoint: median tumor weight (est.), dose: 12.5 mg/kg/injection, schedule: Q07DX002 (ip), vehicle: saline + Tween-80 + alcohol, evaluated on day 20, higher T/C = larger tumour) of the same molecule?
The T/C was 68 % of control [survivor count not shown].

And the T/C (T/C endpoint: median tumor weight (est.), dose: 25.0 mg/kg/injection, schedule: Q07DX002 (ip), vehicle: saline + Tween-80 + alcohol, evaluated on day 20, higher T/C = larger tumour)?
The T/C was 71 % of control [survivor count not shown].

What about the T/C (T/C endpoint: median tumor weight (est.), dose: 50.0 mg/kg/injection, schedule: Q07DX002 (ip), vehicle: saline + Tween-80 + alcohol, evaluated on day 20, higher T/C = larger tumour) of the same molecule?
The T/C was 66 % of control [survivor count not shown].

For `CC1=CC2OC3CC4OC(=O)/C=C/C=C/C(C(C)O)OCC/C(C)=C/C(=O)OCC2(CC1)C4(C)C31CO1` (centres undefined), which T/C (T/C endpoint: median tumor weight (est.), dose: 1.56 mg/kg/injection, schedule: Q07DX002 (ip), vehicle: suspension in saline, evaluated on day 20, higher T/C = larger tumour) is on record?
The T/C was 141 % of control [survivor count not shown].

And the T/C (T/C endpoint: median tumor weight (est.), dose: 3.12 mg/kg/injection, schedule: Q07DX002 (ip), vehicle: suspension in saline, evaluated on day 20, higher T/C = larger tumour)?
The T/C was 110 % of control [survivor count not shown].

What about the T/C (T/C endpoint: median tumor weight (est.), dose: 6.25 mg/kg/injection, schedule: Q07DX002 (ip), vehicle: suspension in saline, evaluated on day 20, higher T/C = larger tumour) of the same molecule?
Its T/C is 138 % of control [survivor count not shown].

And the T/C (T/C endpoint: median tumor weight (est.), dose: 12.5 mg/kg/injection, schedule: Q07DX002 (ip), vehicle: suspension in saline, evaluated on day 20, higher T/C = larger tumour)?
Its T/C is 101 % of control [survivor count not shown].

And the T/C (T/C endpoint: median tumor weight (est.), dose: 25.0 mg/kg/injection, schedule: Q07DX002 (ip), vehicle: suspension in saline, evaluated on day 20, higher T/C = larger tumour)?
The T/C was 102 % of control [survivor count not shown].

Which results are given for `C[C@@H]1CCOC(=O)/C=C/C=C\C(=O)O[C@@H]2C[C@H]3O[C@@H]4[C@@H]5OC5(C)CCC4(COC(=O)[C@H]1O)[C@]2(C)[C@@]31CO1` (some centres undefined)?
T/C (T/C endpoint: median tumor weight (est.), dose: 0.5 mg/kg/injection, schedule: Q07DX003 (ip), vehicle: saline + alcohol, evaluated on day 20, higher T/C = larger tumour): 121 % of control [survivor count not shown]; T/C (T/C endpoint: median tumor weight (est.), dose: 1.0 mg/kg/injection, schedule: Q07DX003 (ip), vehicle: saline + alcohol, evaluated on day 20, higher T/C = larger tumour): 97 % of control [survivor count not shown]; T/C (T/C endpoint: median tumor weight (est.), dose: 2.0 mg/kg/injection, schedule: Q07DX003 (ip), vehicle: saline + alcohol, evaluated on day 20, higher T/C = larger tumour): 87 % of control [survivor count not shown]; T/C (T/C endpoint: median tumor weight (est.), dose: 4.0 mg/kg/injection, schedule: Q07DX003 (ip), vehicle: saline + alcohol, evaluated on day 20, higher T/C = larger tumour): 135 % of control [survivor count not shown]; T/C (T/C endpoint: median tumor weight (est.), dose: 8.0 mg/kg/injection, schedule: Q07DX003 (ip), vehicle: saline + alcohol, evaluated on day 20, higher T/C = larger tumour): 145 % of control [survivor count not shown]
